According to PubChem BioAssay AID2662 (National Center for Advancing Translational Sciences (NCATS), 2010):
Out of some 290,000 compounds screened, about 110 (0.038%) were called active. The shares of active, inactive and inconclusive entries below differ from those in the screen. Calls follow the shape of the dose curve; as a rule, active = well fitted inhibition curve with a large enough effect in the polarisation, with a control signal flat (not every such curve was filed as active); inconclusive = small, poorly fitted or top-dose-only effect, or effect the other way, or a change in a side signal; inactive = no such curve, though single readings can be large or run the other way; the % refers to the polarisation. Where the call is inconclusive, the potency comes from a doubtful curve fit. A note “side channel” means that the fit belongs to a control or component signal, not to the main read-out.

The chains behind the UniProt entries cited, without tags or fusion partners.
UniProt Q03164, whole entry, looked up: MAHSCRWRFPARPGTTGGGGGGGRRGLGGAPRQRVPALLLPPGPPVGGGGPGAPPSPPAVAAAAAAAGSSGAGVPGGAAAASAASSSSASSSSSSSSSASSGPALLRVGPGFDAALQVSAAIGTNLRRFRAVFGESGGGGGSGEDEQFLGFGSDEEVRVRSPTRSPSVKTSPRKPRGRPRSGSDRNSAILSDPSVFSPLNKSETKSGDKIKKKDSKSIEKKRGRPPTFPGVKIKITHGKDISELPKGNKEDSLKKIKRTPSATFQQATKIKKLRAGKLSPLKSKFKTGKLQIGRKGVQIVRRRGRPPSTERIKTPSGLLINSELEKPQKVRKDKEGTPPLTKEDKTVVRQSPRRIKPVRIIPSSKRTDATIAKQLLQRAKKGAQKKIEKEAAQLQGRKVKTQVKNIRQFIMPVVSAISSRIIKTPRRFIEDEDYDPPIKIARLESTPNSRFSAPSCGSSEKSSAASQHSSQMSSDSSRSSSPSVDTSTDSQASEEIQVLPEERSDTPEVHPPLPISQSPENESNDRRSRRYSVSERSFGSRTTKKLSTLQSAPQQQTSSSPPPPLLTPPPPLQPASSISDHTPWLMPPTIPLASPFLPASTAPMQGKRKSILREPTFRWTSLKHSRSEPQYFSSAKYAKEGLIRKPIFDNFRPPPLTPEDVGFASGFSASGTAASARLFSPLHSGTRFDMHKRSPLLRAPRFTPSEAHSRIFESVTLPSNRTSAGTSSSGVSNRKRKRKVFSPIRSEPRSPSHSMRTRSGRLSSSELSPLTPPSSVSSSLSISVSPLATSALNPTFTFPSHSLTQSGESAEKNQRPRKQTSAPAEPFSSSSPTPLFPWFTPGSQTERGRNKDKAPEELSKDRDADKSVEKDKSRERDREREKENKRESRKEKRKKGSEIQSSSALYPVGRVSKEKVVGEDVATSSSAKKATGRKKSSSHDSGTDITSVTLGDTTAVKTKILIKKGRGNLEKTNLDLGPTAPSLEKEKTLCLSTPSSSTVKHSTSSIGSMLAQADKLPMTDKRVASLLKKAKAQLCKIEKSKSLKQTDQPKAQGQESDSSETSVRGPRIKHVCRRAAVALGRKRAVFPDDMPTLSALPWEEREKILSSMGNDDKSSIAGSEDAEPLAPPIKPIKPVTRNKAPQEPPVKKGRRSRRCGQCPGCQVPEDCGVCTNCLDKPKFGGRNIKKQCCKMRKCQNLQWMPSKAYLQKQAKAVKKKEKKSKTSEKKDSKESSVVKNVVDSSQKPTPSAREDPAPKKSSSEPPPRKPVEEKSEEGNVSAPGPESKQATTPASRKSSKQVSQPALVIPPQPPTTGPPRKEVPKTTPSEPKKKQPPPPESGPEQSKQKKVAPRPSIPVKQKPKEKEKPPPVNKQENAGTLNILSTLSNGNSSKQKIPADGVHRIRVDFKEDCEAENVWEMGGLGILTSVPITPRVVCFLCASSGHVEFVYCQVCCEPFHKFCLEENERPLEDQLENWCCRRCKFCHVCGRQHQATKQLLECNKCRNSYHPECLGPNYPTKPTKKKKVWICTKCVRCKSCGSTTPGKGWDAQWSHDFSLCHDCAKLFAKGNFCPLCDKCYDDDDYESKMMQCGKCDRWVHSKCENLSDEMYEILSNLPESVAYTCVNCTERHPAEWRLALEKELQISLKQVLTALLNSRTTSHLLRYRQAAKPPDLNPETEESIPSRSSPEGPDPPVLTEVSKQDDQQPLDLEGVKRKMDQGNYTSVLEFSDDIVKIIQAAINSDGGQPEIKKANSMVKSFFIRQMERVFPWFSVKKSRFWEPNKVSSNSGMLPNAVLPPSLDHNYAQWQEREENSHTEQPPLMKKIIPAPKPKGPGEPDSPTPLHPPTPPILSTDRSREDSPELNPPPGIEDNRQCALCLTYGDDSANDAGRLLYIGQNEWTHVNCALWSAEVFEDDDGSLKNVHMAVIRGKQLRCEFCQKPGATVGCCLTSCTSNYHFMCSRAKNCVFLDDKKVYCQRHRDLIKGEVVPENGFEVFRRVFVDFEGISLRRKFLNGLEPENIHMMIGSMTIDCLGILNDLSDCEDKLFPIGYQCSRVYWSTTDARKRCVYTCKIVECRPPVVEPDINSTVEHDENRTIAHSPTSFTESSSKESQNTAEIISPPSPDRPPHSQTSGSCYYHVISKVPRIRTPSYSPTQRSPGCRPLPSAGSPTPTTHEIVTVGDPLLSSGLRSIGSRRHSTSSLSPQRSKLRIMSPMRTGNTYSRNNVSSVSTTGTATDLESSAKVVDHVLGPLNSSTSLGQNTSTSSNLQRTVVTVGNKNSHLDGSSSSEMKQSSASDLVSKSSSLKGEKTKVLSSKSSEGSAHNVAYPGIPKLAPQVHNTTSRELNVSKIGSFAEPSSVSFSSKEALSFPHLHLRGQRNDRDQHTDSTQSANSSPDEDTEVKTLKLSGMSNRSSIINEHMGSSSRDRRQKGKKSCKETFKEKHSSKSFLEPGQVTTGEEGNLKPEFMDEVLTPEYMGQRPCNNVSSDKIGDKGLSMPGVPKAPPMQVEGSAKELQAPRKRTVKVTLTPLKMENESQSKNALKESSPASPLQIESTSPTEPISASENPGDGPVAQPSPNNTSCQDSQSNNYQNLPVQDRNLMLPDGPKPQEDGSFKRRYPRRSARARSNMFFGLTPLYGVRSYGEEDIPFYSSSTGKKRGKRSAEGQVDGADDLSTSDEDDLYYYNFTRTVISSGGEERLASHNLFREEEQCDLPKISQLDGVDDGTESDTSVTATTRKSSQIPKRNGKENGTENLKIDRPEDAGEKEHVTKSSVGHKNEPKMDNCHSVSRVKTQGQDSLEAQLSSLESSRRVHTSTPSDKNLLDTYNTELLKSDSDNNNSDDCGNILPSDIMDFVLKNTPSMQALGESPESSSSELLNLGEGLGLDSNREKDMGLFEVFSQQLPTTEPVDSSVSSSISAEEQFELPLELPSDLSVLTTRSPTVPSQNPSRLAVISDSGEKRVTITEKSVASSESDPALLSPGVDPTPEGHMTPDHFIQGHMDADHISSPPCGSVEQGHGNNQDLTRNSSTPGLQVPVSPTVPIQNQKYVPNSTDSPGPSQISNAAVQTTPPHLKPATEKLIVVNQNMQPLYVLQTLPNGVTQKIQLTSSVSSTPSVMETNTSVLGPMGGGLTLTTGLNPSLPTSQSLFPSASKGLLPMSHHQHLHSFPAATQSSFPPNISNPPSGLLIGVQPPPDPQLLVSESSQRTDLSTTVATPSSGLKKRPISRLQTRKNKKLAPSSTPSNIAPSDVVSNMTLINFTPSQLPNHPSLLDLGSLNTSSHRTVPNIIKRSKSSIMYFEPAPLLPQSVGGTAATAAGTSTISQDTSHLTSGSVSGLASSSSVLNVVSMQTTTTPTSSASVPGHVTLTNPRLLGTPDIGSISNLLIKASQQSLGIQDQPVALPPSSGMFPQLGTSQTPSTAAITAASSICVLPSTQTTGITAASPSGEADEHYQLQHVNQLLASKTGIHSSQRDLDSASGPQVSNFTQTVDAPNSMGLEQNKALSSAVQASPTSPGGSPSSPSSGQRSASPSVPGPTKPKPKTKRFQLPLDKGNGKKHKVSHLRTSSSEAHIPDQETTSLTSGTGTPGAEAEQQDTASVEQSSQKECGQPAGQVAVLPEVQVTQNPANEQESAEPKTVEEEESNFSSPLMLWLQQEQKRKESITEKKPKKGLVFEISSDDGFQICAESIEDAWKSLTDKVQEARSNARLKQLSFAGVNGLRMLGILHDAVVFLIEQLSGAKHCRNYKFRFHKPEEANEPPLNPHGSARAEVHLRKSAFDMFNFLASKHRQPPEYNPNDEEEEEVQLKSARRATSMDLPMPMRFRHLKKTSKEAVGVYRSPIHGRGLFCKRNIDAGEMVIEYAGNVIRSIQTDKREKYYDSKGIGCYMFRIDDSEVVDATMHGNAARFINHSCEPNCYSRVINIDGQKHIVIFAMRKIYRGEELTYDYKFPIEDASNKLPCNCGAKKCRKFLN

Each molecule was assayed against Histone-lysine N-methyltransferase 2A (Homo sapiens) (UniProt Q03164) (assay: qHTS Fluorescence Polarization Assay for Inhibitors of MLL CXXC domain - DNA interaction). Conditions: MLL-CXXC / FITC-HOXA9 DNA fluorescence polarization; series mostly up to 115 µM.
In short: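 Fluorescence polarization: 7 uM MLL-CXXC (stock) preincubated 5 min with compounds, then 50 nM fluorescein-HOX-A9 DNA (stock) added; 30 min ambient. Buffer 50 mM Tris-HCl pH 7.5, 50 mM NaCl, 1 mM DTT, 0.05% BSA.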
Potency is read from the fitted curve at half-maximal effect.

| SMILES | Potency |
| --- | --- |
| O=C(NCc1ccc2c(c1)OCO2)c1nc(S(=O)(=O)Cc2ccccc2F)ncc1Cl | inactive |
| COc1cc(CNC2CCCC2)cc(Cl)c1OCc1ccccc1F | inconclusive: 70.8 µM [quencher, side channel, single point] |
| CCCCN1C(=O)/C(=C2/Sc3ccccc3N2C)S/C1=N\c1ncn[nH]1 | inconclusive: 70.8 µM [fluorescent, side channel, single point] |
| Cc1cc(=O)oc2cc(OCC(=O)N3CC(C)OC(C)C3)ccc12 (stereo not drawn) | inactive |
| COc1ccc(OC)c(/C=N\NC(=O)c2ccc(-c3ccccc3)cc2)c1 | inactive |
| Cc1ccc(NC(=O)c2cc(N3C(=O)C4CC=CCC4C3=O)ccc2N2CCOCC2)cc1Cl (stereo not drawn) | inconclusive: 31.6 µM [fluorescent, side channel, single point] |
| Cc1c(CCC(=O)O)c(=O)oc2c(C)c3occ(-c4ccc(Br)cc4)c3cc12 | inactive |
| Cc1cc(=O)[nH]c(N/N=C/c2ccccc2Cl)n1 | inconclusive: 63.1 µM [inhibitor, single point] |
| CC1CCCCN1S(=O)(=O)c1ccc(C(=O)Nc2ccccc2-c2nc3ccccc3[nH]2)cc1 (stereo not drawn) | inactive |
| CC1(C)Cc2c(ccc3ccccc23)C(NNC(=O)c2cccnc2)=N1 | inconclusive: 10 µM [inhibitor, single point] |
| Cc1nc([N+](=O)[O-])c(C(=O)OCc2ccccc2F)n1C | inconclusive: 14.1 µM [quencher, side channel, full curve, poor fit] |
| c1csc(-c2nc(NCCCN3CCOCC3)c3ccccc3n2)c1 | inactive |
| O=C(N/N=C/c1ccc(-c2ccccc2Cl)o1)c1ccccc1 | inactive |
| COc1ccc(C(=O)NC(=S)Nc2ccc(N3CCOCC3)c(Cl)c2)cc1[N+](=O)[O-] | inconclusive: 1.41 µM [quencher, side channel, partial curve, poor fit] |
| O=C1NN(c2ccccc2)C(=O)/C1=C\c1ccc(-c2cc([N+](=O)[O-])ccc2O)o1 | inconclusive: 100 µM [inhibitor, partial curve] |
| CN(C)CCC1c2ccc(Cl)cc2CCc2cccnc21 (stereo not drawn) (tested in a mixture with another compound) | inconclusive: 12.6 µM [fluorescent, side channel, full curve] |
| CCCCN(C(=O)c1ccccc1OCc1ccc(F)cc1)c1c(N)n(CC(C)C)c(=O)[nH]c1=O | inconclusive: 7.94 µM [quencher, side channel, single point] |
| CCCCCCCCOc1ccccc1C(=O)Nc1ccc(C(=O)OCC[N+](C)(CC)CC)cc1 | inconclusive: 50.1 µM [quencher, side channel, partial curve] |
| O=C(Cn1ncc2c3ccccc3n(Cc3cccc(Cl)c3)c2c1=O)NCC1CCCO1 (stereo not drawn) | inconclusive: 70.8 µM [fluorescent, side channel, single point] |
| CCc1cccc(C)c1NC(=O)C1CCN(C(=O)c2ccc([N+](=O)[O-])cc2)CC1 | inconclusive: 17.8 µM [fluorescent, side channel, partial curve] |
| Cc1ccc(O)c(C(=O)c2cc(C#N)c(=O)n(-c3nccs3)c2)c1 | inconclusive: 7.94 µM [fluorescent, side channel, full curve] |

| SMILES | Potency |
| --- | --- |
| COc1ccc(COC(=O)C2=C(C)NC(=O)NC2c2cc(OC)ccc2OC)cc1 (stereo not drawn) | inactive |
| Cc1ccc(S(=O)(=O)c2c(N)n(Cc3ccco3)c3nc4ccccc4nc23)cc1C | inactive |
| COc1ccc(/C=C/C(=O)O)cc1 | inactive |
| O=C(c1ccc(Cl)c(S(=O)(=O)N2CCCC2)c1)N1CCOCC1 | inconclusive: 15.8 µM [fluorescent, side channel, single point] |
| N#CCn1cnc2sc(-c3ccccc3)cc2c1=O | inconclusive: 39.8 µM [fluorescent, side channel, partial curve] |
| Cc1ccc(NC(=O)CC(=O)Nc2ccc(C)cc2C)c(C)c1 | inactive |
| O=C(Nc1ccc(CN2CCOCC2)cc1)c1ccc2ccccc2c1 | inconclusive: 10 µM [quencher, side channel, single point] |
| COc1ccc(OC)c(/C=C2\SC(N3CCCCC3)=NC2=O)c1 | inactive |
| Cc1ccc(S(=O)(=O)NCC(=O)OCC(=O)Nc2cccc(S(=O)(=O)NC3=NCCCCC3)c2)cc1 | inconclusive: 1 µM [fluorescent, side channel, full curve, poor fit] |
| CC(=O)Nc1cccc(Nc2nc(-c3cccs3)nc3ccccc23)c1 | inactive |
| COc1cc(/C=C2\S/C(=N/S(=O)(=O)c3ccc(C)cc3)NC2=O)c([N+](=O)[O-])cc1OC | inconclusive: 31.6 µM [inhibitor, partial curve] |
| Cc1cc(OC(C)C(=O)N2C[C@H]3C[C@@H](C2)c2cccc(=O)n2C3)c2c(C)c(C)c(=O)oc2c1 (stereo partly drawn) | inconclusive: 3.16 µM [fluorescent, side channel, full curve, poor fit] |
| CC/C(=C\C(=O)c1ccncc1)Nc1ccc(O)cc1 | inactive |
| CCOC(=O)c1ccccc1NC(=S)N1CCC(C)CC1 | inconclusive: 14.1 µM [quencher, side channel, single point] |
| O=c1[nH]c(/C=C\c2ccccc2F)nc(O)c1[N+](=O)[O-] | inconclusive: 2.82 µM [inhibitor, full curve, poor fit] |
| COC(=O)N/N=C/c1cn(Cc2ccccc2Cl)c2ccccc12 | inconclusive: 44.7 µM [quencher, side channel, single point] |
| COc1ccc2nc(C)cc(Nc3ccc(N4CCOCC4)cc3)c2c1 | inconclusive: 63.1 µM [quencher, side channel, single point] |
| O=C(/C=C/c1ccc([N+](=O)[O-])cc1)NCCSc1ccccc1 | inconclusive: 1.41 µM [fluorescent, side channel, partial curve, poor fit] |
| Cc1cccc(OCc2nc(C#N)c(N3CCCC3)o2)c1 | inactive |
| CC1=CC(=C(C#N)c2nc3ccccc3s2)C=C(C)N1c1ccc(F)cc1 | inconclusive: 31.6 µM [fluorescent, side channel, partial curve] |
| COc1cc(/C=C2/SC(=S)N(CC3CCCO3)C2=O)ccc1O (stereo not drawn) | inconclusive: 31.6 µM [fluorescent, side channel, partial curve] |

Gathered by group, the entries above with a COOH group (2)

| SMILES | Potency |
| --- | --- |
| Cc1c(CCC(=O)O)c(=O)oc2c(C)c3occ(-c4ccc(Br)cc4)c3cc12 | inactive |
| COc1ccc(/C=C/C(=O)O)cc1 | inactive |

Going on with the list:

| SMILES | Potency |
| --- | --- |
| O=C(CSc1nc2ccccc2c(=O)n1CCCN1CCOCC1)Nc1cccc(S(=O)(=O)N2CCCCCC2)c1 | inactive |
| COc1cc(C(=O)N2CCN(C3CCC(C)CC3)CC2)cc(OC)c1OC (stereo not drawn) | inconclusive: 3.16 µM [fluorescent, side channel, full curve, poor fit] |
| N#CC1(P(=O)(c2ccccc2)c2ccccc2)CCCC1 | inactive |
| CCN1CCN(c2cc(C)c3cc(NC(=O)CCC(=O)Nc4ccc(OC)c(OC)c4)ccc3n2)CC1 | inactive |
| Cc1ccc(N=Cc2c(O)n(-c3nccs3)c(=O)c3ccccc23)c(C)c1 | inconclusive: 56.2 µM [fluorescent, side channel, single point] |
| C=CCN1C(=O)/C(=C/C=C2/N(CC)c3ccc(S(=O)(=O)N(C)C)cc3N2CC)SC1=S | inconclusive: 5.62 µM [fluorescent, side channel, partial curve] |
| Brc1ccc(CN2CCSCC2)cc1 | inactive |
| O=C(CCCNC(=O)c1ccc(Cl)cc1)Nc1ccccc1C(F)(F)F | inconclusive: 44.7 µM [inhibitor, single point] |
| CCN(CC)c1ccc(/C=C(/C#N)c2nc3ccc(C)cc3[nH]2)c(OC(C)C)c1 | inconclusive: 31.6 µM [fluorescent, side channel, partial curve] |
| O=C(NNC(=O)c1cc2ccccc2cc1O)c1cccs1 | inconclusive: 31.6 µM [fluorescent, side channel, partial curve] |
| COc1cc(/C=N/Nc2nncn2N)ccc1OCc1c(C)no[n+]1[O-] | inactive |
| Nc1ccc2nc(-c3ccccc3)c(-c3ccccc3)nc2c1 | inconclusive: 70.8 µM [fluorescent, side channel, single point] |
| CCOC(=O)c1cc2c(=O)n3cccc(C)c3nc2n(C)c1=N | inconclusive: 28.2 µM [quencher, side channel, partial curve, poor fit] |
| CCOc1ccc(CNc2ccc(CNc3ncn[nH]3)cc2)cc1 | inconclusive: 8.91 µM [inhibitor, single point] |
| Cc1cc(NC(=O)CSc2nnc(-c3ccoc3C)o2)no1 | inactive |
| CCCCSc1nc(O)c(C2OC(=O)c3c2ccc(OC)c3OC)c(=O)n1-c1ccccc1 (stereo not drawn) | inconclusive: 31.6 µM [inhibitor, partial curve] |
| Cc1ccc(/C=C2/C(=O)c3ccc(C(=O)O)cc3C2=O)o1 | active: 39.8 µM |
| COc1cccc(=O)c2c(C)oc(C)c12 | inconclusive: 35.5 µM [fluorescent, partial curve] |
| CC(C)Cc1ccc(C(C)C(N)=NCCc2ccccc2)cc1 (stereo not drawn) | inconclusive: 15.8 µM [fluorescent, side channel, single point] |
| O=C1N=C(N2C=CC(=C3C=CNC=C3)C=C2)/C(=C/N=NC(=O)c2ccccc2O)S1 | inconclusive: 14.1 µM [inhibitor, single point] |
| C=CCNC(=O)COc1coc(CN2CCN(Cc3ccccc3)CC2)cc1=O | inconclusive: 8.91 µM [fluorescent, side channel, partial curve] |
